US20250136711A1 (SHANGHAI BIOTROY BIOTECHNIQUE, published 2025)
These are yes or no findings as the source states them, for the method shown. Some results given as binding are weak or reduced against the parent protein; the word gives no strength. For some assays here: Sequences can lack the tags named with a protein.

Amino acid sequences for entries named in this document (tags omitted). Residues count along the entry.
UniProt Q8NHJ6, residues 22-259: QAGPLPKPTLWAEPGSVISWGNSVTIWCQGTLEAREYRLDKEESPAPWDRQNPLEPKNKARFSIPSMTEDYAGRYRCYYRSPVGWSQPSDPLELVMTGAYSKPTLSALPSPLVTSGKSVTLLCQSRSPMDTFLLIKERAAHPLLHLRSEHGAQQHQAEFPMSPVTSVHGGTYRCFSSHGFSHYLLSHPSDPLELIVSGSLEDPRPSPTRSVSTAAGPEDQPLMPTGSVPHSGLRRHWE
UniProt Q8N423, residues 22-460: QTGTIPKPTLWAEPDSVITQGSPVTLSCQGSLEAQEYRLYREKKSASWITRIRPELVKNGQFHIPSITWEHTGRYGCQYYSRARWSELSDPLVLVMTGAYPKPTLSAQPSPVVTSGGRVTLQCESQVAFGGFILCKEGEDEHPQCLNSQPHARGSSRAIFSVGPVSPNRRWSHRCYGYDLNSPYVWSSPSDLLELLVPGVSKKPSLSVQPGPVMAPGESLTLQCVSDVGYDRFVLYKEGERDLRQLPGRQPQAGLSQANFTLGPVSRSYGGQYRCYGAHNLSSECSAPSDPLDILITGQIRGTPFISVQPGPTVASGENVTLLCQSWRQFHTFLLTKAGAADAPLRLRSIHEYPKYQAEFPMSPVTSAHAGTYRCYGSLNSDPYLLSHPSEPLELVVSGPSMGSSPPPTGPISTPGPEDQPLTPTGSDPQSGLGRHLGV
UniProt P04279, residues 24-462: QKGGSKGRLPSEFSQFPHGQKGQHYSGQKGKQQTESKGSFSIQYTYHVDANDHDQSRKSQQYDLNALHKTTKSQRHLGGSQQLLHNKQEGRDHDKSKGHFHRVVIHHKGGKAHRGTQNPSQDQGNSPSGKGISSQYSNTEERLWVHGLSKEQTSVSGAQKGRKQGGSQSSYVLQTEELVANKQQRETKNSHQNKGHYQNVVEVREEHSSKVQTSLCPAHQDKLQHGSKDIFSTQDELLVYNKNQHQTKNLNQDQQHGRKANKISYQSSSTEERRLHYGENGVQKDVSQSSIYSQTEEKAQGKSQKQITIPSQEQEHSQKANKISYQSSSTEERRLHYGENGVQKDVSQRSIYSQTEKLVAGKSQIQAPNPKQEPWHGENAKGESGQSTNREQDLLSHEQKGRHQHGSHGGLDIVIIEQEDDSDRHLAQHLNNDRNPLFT

Key:
[1] = molecular target: LILRB4 extracellular region protein fragment labeled with an hFc tag (UniProt Q8NHJ6); assay: ELISA; SEMG1 coated at 10, 3.3, 1.1 ug/mL, LILRB4-hFc at 2 ug/mL, anti-human Fc HRP
[2] = molecular target: LILRB2 extracellular region protein fragment labeled with an hFc tag (UniProt Q8N423); assay: ELISA; SEMG1 coated at 10, 3.3, 1.1 ug/mL, LILRB2-hFc at 2 ug/mL, anti-human Fc HRP
[3] = molecular target: LILRB2 extracellular region protein fragment labeled with an hFc tag (UniProt Q8N423); assay: ELISA; SEMG1 expressed in E. coli
[4] = molecular target: T1, CD27 extracellular region protein fragment labeled with an hFc tag (UniProt P26842); assay: ELISA; SEMG1 coated at 10, 3.3, 1.1 ug/mL, CD27-hFc at 2 ug/mL, anti-human Fc HRP
T1 sequence (looked up): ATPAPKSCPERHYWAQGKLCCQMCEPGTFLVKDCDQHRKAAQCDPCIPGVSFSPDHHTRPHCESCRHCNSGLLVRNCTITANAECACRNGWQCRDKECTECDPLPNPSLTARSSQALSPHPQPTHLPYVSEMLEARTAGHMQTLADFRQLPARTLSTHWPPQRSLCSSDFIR

[5] = molecular target: LILRB2 extracellular region protein fragment labeled with an hFc tag (UniProt Q8N423); assay: ELISA; SEMG1 coated, receptor-hFc in solution
[6] = molecular target: LILRB4 extracellular region protein fragment labeled with an hFc tag (UniProt Q8NHJ6); assay: ELISA; SEMG1 coated, receptor-hFc in solution
[7] = molecular target: LILRB2 extracellular region protein fragment labeled with an hFc tag (UniProt Q8N423); assay: ELISA; SEMG2 coated, receptor-hFc in solution
[8] = molecular target: LILRB4 extracellular region protein fragment labeled with an hFc tag (UniProt Q8NHJ6); assay: ELISA; SEMG2 coated, receptor-hFc in solution
[9] = molecular target: LILRB4 extracellular region protein fragment labeled with an hFc tag (UniProt Q8NHJ6); assay: ELISA; SEMG2 coated at 10, 3.3, 1.1 ug/mL, LILRB4-hFc at 2 ug/mL, anti-human Fc HRP
[10] = molecular target: T1, CD27 extracellular region protein fragment labeled with an hFc tag; assay: ELISA; SEMG2 coated at 10, 3.3, 1.1 ug/mL, CD27-hFc at 2 ug/mL, anti-human Fc HRP
[11] = molecular target: LILRB2 extracellular region protein fragment labeled with an hFc tag (UniProt Q8N423); assay: ELISA; SEMG2 coated at 10, 3.3, 1.1 ug/mL, LILRB2-hFc at 2 ug/mL, anti-human Fc HRP

Measured: binding

SEMG1 recombinant protein (semenogelin-1) (from UniProt P04279 24-462) (ligand)
binds: [1] | [2] | [3] | [4] | [5] | [6]

B1: SEMG2 recombinant protein (semenogelin-2) (ligand, human, UniProt Q02383 24-582, looked up)
chain: QKGGSKGQLPSGSSQFPHGQKGQHYFGQKDQQHTKSKGSFSIQHTYHVDINDHDWTRKSQQYDLNALHKATKSKQHLGGSQQLLNYKQEGRDHDKSKGHFHMIVIHHKGGQAHHGTQNPSQDQGNSPSGKGLSSQCSNTEKRLWVHGLSKEQASASGAQKGRTQGGSQSSYVLQTEELVVNKQQRETKNSHQNKGHYQNVVDVREEHSSKLQTSLHPAHQDRLQHGPKDIFTTQDELLVYNKNQHQTKNLSQDQEHGRKAHKISYPSSRTEERQLHHGEKSVQKDVSKGSISIQTEEKIHGKSQNQVTIHSQDQEHGHKENKISYQSSSTEERHLNCGEKGIQKGVSKGSISIQTEEQIHGKSQNQVRIPSQAQEYGHKENKISYQSSSTEERRLNSGEKDVQKGVSKGSISIQTEEKIHGKSQNQVTIPSQDQEHGHKENKMSYQSSSTEERRLNYGGKSTQKDVSQSSISFQIEKLVEGKSQIQTPNPNQDQWSGQNAKGKSGQSADSKQDLLSHEQKGRYKQESSESHNIVITEHEVAQDDHLTQQYNEDRNPIST
binds: [7] | [8] | [9] | [10] | [11]
